No constants are given. Whether binding was seen depends on the method and setting. A result given as binding can be weak or reduced; the word gives no strength. Tags and fused reporters may be left off the sequences shown.

The target in the test is T1, FLAG-tagged IRS2-WT (mouse) (UniProt P81122).
T1 sequence: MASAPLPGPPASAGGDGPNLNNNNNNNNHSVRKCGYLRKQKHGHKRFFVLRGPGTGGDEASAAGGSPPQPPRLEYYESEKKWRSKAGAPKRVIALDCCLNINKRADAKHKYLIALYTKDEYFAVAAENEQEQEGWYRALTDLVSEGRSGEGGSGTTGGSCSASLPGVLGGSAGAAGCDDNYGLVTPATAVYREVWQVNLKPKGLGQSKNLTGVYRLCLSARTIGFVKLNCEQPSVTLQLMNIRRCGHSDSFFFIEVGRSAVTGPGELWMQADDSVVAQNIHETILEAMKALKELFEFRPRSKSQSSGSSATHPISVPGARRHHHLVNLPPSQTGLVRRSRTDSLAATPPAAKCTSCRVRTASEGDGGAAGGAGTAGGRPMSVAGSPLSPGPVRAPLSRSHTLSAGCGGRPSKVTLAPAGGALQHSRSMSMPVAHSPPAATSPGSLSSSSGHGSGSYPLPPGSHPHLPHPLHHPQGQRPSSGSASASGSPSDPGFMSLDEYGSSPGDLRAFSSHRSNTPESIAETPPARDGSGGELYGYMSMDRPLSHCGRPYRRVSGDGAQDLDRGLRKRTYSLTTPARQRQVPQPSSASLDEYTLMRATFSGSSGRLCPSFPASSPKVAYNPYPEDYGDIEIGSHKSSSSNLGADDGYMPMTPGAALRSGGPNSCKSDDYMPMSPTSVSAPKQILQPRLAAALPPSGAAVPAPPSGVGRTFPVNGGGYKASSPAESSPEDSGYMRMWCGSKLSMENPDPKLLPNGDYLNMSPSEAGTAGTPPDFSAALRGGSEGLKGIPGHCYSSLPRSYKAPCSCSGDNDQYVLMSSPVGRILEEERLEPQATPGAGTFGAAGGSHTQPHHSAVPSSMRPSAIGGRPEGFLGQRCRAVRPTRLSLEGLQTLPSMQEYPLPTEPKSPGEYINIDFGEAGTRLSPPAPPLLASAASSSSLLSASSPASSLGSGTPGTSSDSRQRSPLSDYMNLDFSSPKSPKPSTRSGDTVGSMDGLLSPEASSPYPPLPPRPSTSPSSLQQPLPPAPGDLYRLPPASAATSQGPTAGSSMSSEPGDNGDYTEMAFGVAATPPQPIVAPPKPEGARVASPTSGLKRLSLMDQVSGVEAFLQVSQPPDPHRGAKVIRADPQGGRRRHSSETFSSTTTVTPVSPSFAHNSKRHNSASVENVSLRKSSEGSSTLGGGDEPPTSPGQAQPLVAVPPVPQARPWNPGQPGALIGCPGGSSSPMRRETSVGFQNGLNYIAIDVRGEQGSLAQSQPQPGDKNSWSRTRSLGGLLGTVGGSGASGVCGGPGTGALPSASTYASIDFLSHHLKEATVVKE
Nature of the test: far-Western, overlay or dot blot; purified IRS1/2-WT or mutants run on a Tris-acetate gel and transferred to a PVDF membrane, treated with 6 M guanidine-HCl and renatured; incubated with 5 µg IRβ in protein-binding buffer (100 mM NaCl, 20 mM Tris pH 7.6, 0.5 mM EDTA, 10% glycerol, 0.1% Tween-20, 2% skim milk, 1 mM DTT) for 16 h at 4 °C; detected with anti-IRβ; both purified.

Take “IRβ protein (used in solution in the far-Western blot) (receptor)”: the binding entry is “binds”.

Values taken from publication PMC5526866.
